These results are taken from paper PMC4619610.

Amino acid sequences for entries named in this document (tags omitted). Residues count along the entry.
UniProt Q8TDQ0, residues 22-301: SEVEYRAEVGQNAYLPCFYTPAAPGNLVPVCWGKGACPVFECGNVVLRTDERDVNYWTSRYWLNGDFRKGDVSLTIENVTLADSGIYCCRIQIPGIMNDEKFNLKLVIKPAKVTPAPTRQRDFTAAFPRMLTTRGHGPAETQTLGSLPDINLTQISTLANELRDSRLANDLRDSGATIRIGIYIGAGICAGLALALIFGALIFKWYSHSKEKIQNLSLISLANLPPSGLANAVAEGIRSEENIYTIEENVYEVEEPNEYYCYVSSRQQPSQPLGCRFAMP
UniProt P27986: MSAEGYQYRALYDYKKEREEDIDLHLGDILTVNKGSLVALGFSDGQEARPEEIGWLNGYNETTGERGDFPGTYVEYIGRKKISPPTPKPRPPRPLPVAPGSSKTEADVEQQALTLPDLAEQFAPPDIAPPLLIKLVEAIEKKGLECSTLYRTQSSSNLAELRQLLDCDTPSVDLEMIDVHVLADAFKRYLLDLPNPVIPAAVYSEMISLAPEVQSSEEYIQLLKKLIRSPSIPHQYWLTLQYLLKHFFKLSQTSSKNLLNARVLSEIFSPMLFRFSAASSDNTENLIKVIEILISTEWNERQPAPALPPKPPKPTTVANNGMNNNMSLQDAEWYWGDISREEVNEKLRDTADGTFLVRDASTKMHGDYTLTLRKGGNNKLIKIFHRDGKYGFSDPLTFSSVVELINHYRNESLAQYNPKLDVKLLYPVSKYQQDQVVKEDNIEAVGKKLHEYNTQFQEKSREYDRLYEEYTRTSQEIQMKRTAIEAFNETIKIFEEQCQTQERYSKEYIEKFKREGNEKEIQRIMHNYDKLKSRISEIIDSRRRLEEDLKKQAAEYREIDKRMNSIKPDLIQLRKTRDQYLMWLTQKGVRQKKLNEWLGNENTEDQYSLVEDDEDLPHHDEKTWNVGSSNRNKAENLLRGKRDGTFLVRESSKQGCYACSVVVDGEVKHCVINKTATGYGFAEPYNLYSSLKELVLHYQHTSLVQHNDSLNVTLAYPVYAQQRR
UniProt P43403: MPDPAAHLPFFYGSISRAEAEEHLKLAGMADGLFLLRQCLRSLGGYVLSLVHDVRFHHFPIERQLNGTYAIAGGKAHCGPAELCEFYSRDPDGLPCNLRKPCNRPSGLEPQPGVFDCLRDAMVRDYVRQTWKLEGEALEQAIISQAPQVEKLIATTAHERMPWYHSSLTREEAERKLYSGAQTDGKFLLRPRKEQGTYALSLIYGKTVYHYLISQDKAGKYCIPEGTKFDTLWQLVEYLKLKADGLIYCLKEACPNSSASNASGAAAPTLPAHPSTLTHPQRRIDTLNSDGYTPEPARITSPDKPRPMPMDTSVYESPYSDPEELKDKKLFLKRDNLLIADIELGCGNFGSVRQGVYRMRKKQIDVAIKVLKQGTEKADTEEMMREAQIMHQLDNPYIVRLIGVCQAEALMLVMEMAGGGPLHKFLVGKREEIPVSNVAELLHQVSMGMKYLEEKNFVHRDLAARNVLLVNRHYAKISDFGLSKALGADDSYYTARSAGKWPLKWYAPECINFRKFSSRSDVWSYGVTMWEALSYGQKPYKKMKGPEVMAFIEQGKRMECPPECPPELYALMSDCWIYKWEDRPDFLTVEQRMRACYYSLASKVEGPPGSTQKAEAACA

Test [1] deals with TIM-3 (T cell immunoglobulin and mucin-domain containing protein 3) (human (endogenous in primary human CD8+ T cells)) (UniProt Q8TDQ0). Description: co-IP; unstimulated (basal state) CD8+/MART-1+ primary human T cells; ~2 mg lysate, biotinylated anti-TIM-3 polyclonal antibody on magnetic streptavidin beads; capillary electrophoresis western.
The target of test [2] is p85α PI-3K subunit (spotted on the ProtoArray) (human) (UniProt P27986). Kind of test: peptide or protein array; biotinylated TIM-3 peptides at 2.5 and 25 μM probed on 9,000 human proteins printed on the Life Technologies ProtoArray (Small Molecule-Protein Interaction profiling service); data not shown; both purified.
Test [3] deals with TIM-3 (T cell immunoglobulin and mucin-domain containing protein 3) (human (endogenous in primary human CD8+ T cells)) (UniProt Q8TDQ0). Kind of test: co-IP; CD8+/MART-1+ primary human T cells stimulated 15 min with anti-CD3/CD28 beads; ~2 mg lysate, biotinylated anti-TIM-3 polyclonal antibody on magnetic streptavidin beads; capillary electrophoresis western.

No constants are given. Whether binding was seen depends on the method and setting. For some of these results: Binding seen in cells or lysates may run through a third protein. Some results given as binding are weak or reduced against the parent protein; the word gives no strength.

As to “ZAP-70 (endogenous) (from UniProt P43403 1-619) (enzyme)”, the binding result in test [1] is recorded as “binds”.
In the case of “p85α PI-3K subunit (endogenous) (from UniProt P27986 1-724)”, the binding entry in test [1] is given as “binds”.

B1: SLP-76 (endogenous) (protein, UniProt Q13094 1-533)
chain: MALRNVPFRSEVLGWDPDSLADYFKKLNYKDCEKAVKKYHIDGARFLNLTENDIQKFPKLRVPILSKLSQEINKNEERRSIFTRKPQVPRFPEETESHEEDNGGWSSFEEDDYESPNDDQDGEDDGDYESPNEEEEAPVEDDADYEPPPSNDEEALQNSILPAKPFPNSNSMYIDRPPSGKTPQQPPVPPQRPMAALPPPPAGRNHSPLPPPQTNHEEPSRSRNHKTAKLPAPSIDRSTKPPLDRSLAPFDREPFTLGKKPPFSDKPSIPAGRSLGEHLPKIQKPPLPPTTERHERSSPLPGKKPPVPKHGWGPDRRENDEDDVHQRPLPQPALLPMSSNTFPSRSTKPSPMNPLPSSHMPGAFSESNSSFPQSASLPPYFSQGPSNRPPIRAEGRNFPLPLPNKPRPPSPAEEENSLNEEWYVSYITRPEAEAALRKINQDGTFLVRDSSKKTTTNPYVLMVLYKDKVYNIQIRYQKESQVYLLGTGLRGKEDFLSVSDIIDYFRKMPLLLIDGKNRGSRYQCTLTHAAGYP
On to B1, for which the binding entry in test [1] is given as “binds”.

B2: 3BP2 (SH3BP2) (endogenous) (protein, UniProt P78314 1-561)
chain: MAAEEMHWPVPMKAIGAQNLLTMPGGVAKAGYLHKKGGTQLQLLKWPLRFVIIHKRCVYYFKSSTSASPQGAFSLSGYNRVMRAAEETTSNNVFPFKIIHISKKHRTWFFSASSEEERKSWMALLRREIGHFHEKKDLPLDTSDSSSDTDSFYGAVERPVDISLSPYPTDNEDYEHDDEDDSYLEPDSPEPGRLEDALMHPPAYPPPPVPTPRKPAFSDMPRAHSFTSKGPGPLLPPPPPKHGLPDVGLAAEDSKRDPLCPRRAEPCPRVPATPRRMSDPPLSTMPTAPGLRKPPCFRESASPSPEPWTPGHGACSTSSAAIMATATSRNCDKLKSFHLSPRGPPTSEPPPVPANKPKFLKIAEEDPPREAAMPGLFVPPVAPRPPALKLPVPEAMARPAVLPRPEKPQLPHLQRSPPDGQSFRSFSFEKPRQPSQADTGGDDSDEDYEKVPLPNSVFVNTTESCEVERLFKATSPRGEPQDGLYCIRNSSTKSGKVLVVWDETSNKVRNYRIFEKDSKFYLEGEVLFVSVGSMVEHYHTHVLPSHQSLLLRHPYGYTGPR
Take B2: in test [1], the binding result is reported as “binds”.

B3: phosphorylated TIM-3 peptide (biotinylated, tyrosine phosphorylated peptide surrounding Y265/Y272 of human TIM-3) (peptide)
peptide: SEENIYTIEENVYEVEEP
modifications: biotin on the N-terminus; the tyrosine residues phosphorylated (Y265, Y272)
For B3, the binding entry in test [2] was “binds”.

B4: PLCγ1 (Phospholipase C) (endogenous) (enzyme, UniProt P19174 1-1290)
chain: MAGAASPCANGCGPGAPSDAEVLHLCRSLEVGTVMTLFYSKKSQRPERKTFQVKLETRQITWSRGADKIEGAIDIREIKEIRPGKTSRDFDRYQEDPAFRPDQSHCFVILYGMEFRLKTLSLQATSEDEVNMWIKGLTWLMEDTLQAPTPLQIERWLRKQFYSVDRNREDRISAKDLKNMLSQVNYRVPNMRFLRERLTDLEQRSGDITYGQFAQLYRSLMYSAQKTMDLPFLEASTLRAGERPELCRVSLPEFQQFLLDYQGELWAVDRLQVQEFMLSFLRDPLREIEEPYFFLDEFVTFLFSKENSVWNSQLDAVCPDTMNNPLSHYWISSSHNTYLTGDQFSSESSLEAYARCLRMGCRCIELDCWDGPDGMPVIYHGHTLTTKIKFSDVLHTIKEHAFVASEYPVILSIEDHCSIAQQRNMAQYFKKVLGDTLLTKPVEISADGLPSPNQLKRKILIKHKKLAEGSAYEEVPTSMMYSENDISNSIKNGILYLEDPVNHEWYPHYFVLTSSKIYYSEETSSDQGNEDEEEPKEVSSSTELHSNEKWFHGKLGAGRDGRHIAERLLTEYCIETGAPDGSFLVRESETFVGDYTLSFWRNGKVQHCRIHSRQDAGTPKFFLTDNLVFDSLYDLITHYQQVPLRCNEFEMRLSEPVPQTNAHESKEWYHASLTRAQAEHMLMRVPRDGAFLVRKRNEPNSYAISFRAEGKIKHCRVQQEGQTVMLGNSEFDSLVDLISYYEKHPLYRKMKLRYPINEEALEKIGTAEPDYGALYEGRNPGFYVEANPMPTFKCAVKALFDYKAQREDELTFIKSAIIQNVEKQEGGWWRGDYGGKKQLWFPSNYVEEMVNPVALEPEREHLDENSPLGDLLRGVLDVPACQIAIRPEGKNNRLFVFSISMASVAHWSLDVAADSQEELQDWVKKIREVAQTADARLTEGKIMERRKKIALELSELVVYCRPVPFDEEKIGTERACYRDMSSFPETKAEKYVNKAKGKKFLQYNRLQLSRIYPKGQRLDSSNYDPLPMWICGSQLVALNFQTPDKPMQMNQALFMTGRHCGYVLQPSTMRDEAFDPFDKSSLRGLEPCAISIEVLGARHLPKNGRGIVCPFVEIEVAGAEYDSTKQKTEFVVDNGLNPVWPAKPFHFQISNPEFAFLRFVVYEEDMFSDQNFLAQATFPVKGLKTGYRAVPLKNNYSEDLELASLLIKIDIFPAKENGDLSPFSGTSLRERGSDASGQLFHGRAREGSFESRYQQPFEDFRISQEHLADHFDSRERRAPRRTRVNGDNRL
In the case of B4, the binding entry in test [3] is on record as “binds”.

B5: Vav-1 (endogenous) (protein, UniProt P15498 1-845)
chain: MELWRQCTHWLIQCRVLPPSHRVTWDGAQVCELAQALRDGVLLCQLLNNLLPHAINLREVNLRPQMSQFLCLKNIRTFLSTCCEKFGLKRSELFEAFDLFDVQDFGKVIYTLSALSWTPIAQNRGIMPFPTEEESVGDEDIYSGLSDQIDDTVEEDEDLYDCVENEEAEGDEIYEDLMRSEPVSMPPKMTEYDKRCCCLREIQQTEEKYTDTLGSIQQHFLKPLQRFLKPQDIEIIFINIEDLLRVHTHFLKEMKEALGTPGAANLYQVFIKYKERFLVYGRYCSQVESASKHLDRVAAAREDVQMKLEECSQRANNGRFTLRDLLMVPMQRVLKYHLLLQELVKHTQEAMEKENLRLALDAMRDLAQCVNEVKRDNETLRQITNFQLSIENLDQSLAHYGRPKIDGELKITSVERRSKMDRYAFLLDKALLICKRRGDSYDLKDFVNLHSFQVRDDSSGDRDNKKWSHMFLLIEDQGAQGYELFFKTRELKKKWMEQFEMAISNIYPENATANGHDFQMFSFEETTSCKACQMLLRGTFYQGYRCHRCRASAHKECLGRVPPCGRHGQDFPGTMKKDKLHRRAQDKKRNELGLPKMEVFQEYYGLPPPPGAIGPFLRLNPGDIVELTKAEAEQNWWEGRNTSTNEIGWFPCNRVKPYVHGPPQDLSVHLWYAGPMERAGAESILANRSDGTFLVRQRVKDAAEFAISIKYNVEVKHIKIMTAEGLYRITEKKAFRGLTELVEFYQQNSLKDCFKSLDTTLQFPFKEPEKRTISRPAVGSTKYFGTAKARYDFCARDRSELSLKEGDIIKILNKKGQQGWWRGEIYGRVGWFPANYVEEDYSEYC
Regarding B5, the binding result in test [1] is “binds”.
